Reference: PubChem BioAssay
Some of the results follow. Measured potencies and affinities stand elsewhere. Entries without a call are filed as inconclusive in the source.

Experiment: Drosophila SCA1 whole organism dose response for polyglutamine toxicity reduction (AID 1595)
Settings: Drosophila SCA1 polyglutamine model, at 1 µM, stronger effect = higher value
`CC(C)Cn1c(=O)n(C)c(=O)c2[nH]cnc21` gave a suppression of toxicity of 15.7.
`c1coc(CNc2ncnc3nc[nH]c23)c1` gave a suppression of toxicity of 1.43.
With `Nc1c2c(nc3ccccc13)CCCC2O` (stereo not drawn) the suppression of toxicity was 22.9.
With `Cc1ccnc(NS(=O)(=O)c2ccc(N)cc2)n1` the suppression of toxicity was 10.
Compound `COc1ccc2cc3[n+](cc2c1OC)CCc1cc2c(cc1-3)OCO2` has a suppression of toxicity of 2.86.
Compound `Cc1onc(-c2ccccc2)c1C(=O)NC1C(=O)N2[C@@H]1SC(C)(C)[C@@H]2C(=O)O` (stereo partly drawn) has a suppression of toxicity of 1.43.
`CN[C@@H]1[C@H](O)[C@H](NC)[C@H]2O[C@@]3(O)C(=O)C[C@@H](C)O[C@H]3O[C@@H]2[C@H]1O` showed a suppression of toxicity of 15.7.
Compound `CCN(CC)C(=O)c1cccc(C)c1` has a suppression of toxicity of 4.29.
Compound `N[C@@H]1[C@@H](O)[C@H](O)[C@@H](CO)O[C@H]1O` has a suppression of toxicity of 7.14.
`CN=C(N)NCCCC(N)C(=O)O` (stereo not drawn) gave a suppression of toxicity of 0.
For `COc1cc(S(C)=O)ccc1-c1nc2ncccc2[nH]1` (stereo not drawn), the suppression of toxicity was 1.43.
Compound `CN1CCC(=C2c3ccccc3CC(=O)c3sccc32)CC1` has a suppression of toxicity of 4.29.
`O=C(N[C@H](CO)[C@H](O)c1ccc([N+](=O)[O-])cc1)C(Cl)Cl` showed a suppression of toxicity of 1.43.
`COc1cc(NC(C)CCCN)c2ncccc2c1` (stereo not drawn) gave a suppression of toxicity of 5.71.
`Nc1ccc(S(=O)(=O)Nc2ccccn2)cc1` gave a suppression of toxicity of 8.57.
Compound `CC(=O)NCCc1c[nH]c2ccc(O)cc12` has a suppression of toxicity of 0.
`CN(C)/N=N/c1nc[nH]c1C(N)=O` showed a suppression of toxicity of 0.
In the case of `Nc1nc2ncc(CNc3ccc(C(=O)N[C@@H](CCC(=O)O)C(=O)O)cc3)nc2c(=O)[nH]1`, the suppression of toxicity is reported as 0.
Compound `CCN1CCCC1CNC(=O)c1cc(S(N)(=O)=O)ccc1OC` (stereo not drawn) has a suppression of toxicity of 10.
In the case of `O=C1OC(c2ccc(O)cc2)(c2ccc(O)cc2)c2ccccc21`, the suppression of toxicity is reported as 1.43.
Work on `Cc1cc(C(C)(C)CC(C)(C)C)ccc1OCCOCC[N+](C)(C)Cc1ccccc1` yielded a suppression of toxicity of 0.
In the case of `CN1CCN(CC(=O)N2c3ccccc3C(=O)Nc3cccnc32)CC1`, the suppression of toxicity is reported as 7.14.
For `CNCCC=C1c2ccccc2CCc2ccccc21`, the suppression of toxicity was 0.
`Cn1cnc([N+](=O)[O-])c1Sc1ncnc2nc[nH]c12` gave a suppression of toxicity of 1.43.
Compound `CC(=O)O[C@]1(C(C)=O)CCC2C3C=C(Cl)C4=CC(=O)[C@@H]5C[C@@H]5[C@]4(C)C3CC[C@@]21C` (stereo partly drawn) has a suppression of toxicity of 1.43.
Compound `NC(N)=Nc1nc(CSCC/C(N)=N\S(N)(=O)=O)cs1` has a suppression of toxicity of 4.29.
Compound `CCCCC(CC)CN=C(N)NC(N)=NCCCCCCN=C(N)NC(N)=NCC(CC)CCCC` (stereo not drawn) has a suppression of toxicity of 0.
In the case of `CN1C(=O)CC[C@H]1c1cccnc1`, the suppression of toxicity is reported as 0.
`O=C(O)c1cccnc1Nc1cccc(C(F)(F)F)c1` showed a suppression of toxicity of 1.43.
Work on `Cc1ncc([N+](=O)[O-])n1CCO` yielded a suppression of toxicity of 2.86.
`CC(C)OC(=O)C(C)(C)Oc1ccc(C(=O)c2ccc(Cl)cc2)cc1` gave a suppression of toxicity of 0.
Compound `C1N2CN3CN1CN(C2)C3` has a suppression of toxicity of 0.
With `NC(N)=NS(=O)(=O)c1ccc(N)cc1` the suppression of toxicity was 1.43.
With `CC(=O)N[C@@H](CC(C)C)C(=O)O` the suppression of toxicity was 2.85.
Work on `Cc1cc(N)c2ccccc2[n+]1CCCCCCCCCC[n+]1c(C)cc(N)c2ccccc21` yielded a suppression of toxicity of 1.43.
`CCCNC(C)C(=O)Nc1ccccc1C` (stereo not drawn) showed a suppression of toxicity of 1.43.
`CC1=C(CC(=O)O)c2cc(F)ccc2/C1=C\c1ccc(S(C)=O)cc1` (stereo not drawn) gave a suppression of toxicity of 7.14.
With `CC(C(=O)O)c1cccc(Oc2ccccc2)c1` (stereo not drawn) the suppression of toxicity was 1.43.
With `O=C(Nc1ccc([N+](=O)[O-])cc1Cl)c1cc(Cl)ccc1O` the suppression of toxicity was 4.29.

Experiment: PubChem AID 1597
Settings: Drosophila SCA1 polyglutamine model, at 1 µM, stronger effect = higher value
Work on `CC(C)Cn1c(=O)n(C)c(=O)c2[nH]cnc21` yielded a suppression of toxicity of 12.9.
In the case of `c1coc(CNc2ncnc3nc[nH]c23)c1`, the suppression of toxicity is reported as 3.57.
`Nc1c2c(nc3ccccc13)CCCC2O` (stereo not drawn) gave a suppression of toxicity of 0.
`Cc1ccnc(NS(=O)(=O)c2ccc(N)cc2)n1` showed a suppression of toxicity of 3.58.
With `COc1ccc2cc3[n+](cc2c1OC)CCc1cc2c(cc1-3)OCO2` the suppression of toxicity was 6.42.
`Cc1onc(-c2ccccc2)c1C(=O)NC1C(=O)N2[C@@H]1SC(C)(C)[C@@H]2C(=O)O` (stereo partly drawn) showed a suppression of toxicity of 0.715.
With `CN[C@@H]1[C@H](O)[C@H](NC)[C@H]2O[C@@]3(O)C(=O)C[C@@H](C)O[C@H]3O[C@@H]2[C@H]1O` the suppression of toxicity was 13.6.
`CCN(CC)C(=O)c1cccc(C)c1` gave a suppression of toxicity of 5.71.
`N[C@@H]1[C@@H](O)[C@H](O)[C@@H](CO)O[C@H]1O` showed a suppression of toxicity of 7.14.
With `CN=C(N)NCCCC(N)C(=O)O` (stereo not drawn) the suppression of toxicity was 0.715.
For `COc1cc(S(C)=O)ccc1-c1nc2ncccc2[nH]1` (stereo not drawn), the suppression of toxicity was 6.42.
In the case of `CN1CCC(=C2c3ccccc3CC(=O)c3sccc32)CC1`, the suppression of toxicity is reported as 6.43.
Work on `O=C(N[C@H](CO)[C@H](O)c1ccc([N+](=O)[O-])cc1)C(Cl)Cl` yielded a suppression of toxicity of 2.15.
`COc1cc(NC(C)CCCN)c2ncccc2c1` (stereo not drawn) showed a suppression of toxicity of 7.86.
With `Nc1ccc(S(=O)(=O)Nc2ccccn2)cc1` the suppression of toxicity was 13.6.
In the case of `CC(=O)NCCc1c[nH]c2ccc(O)cc12`, the suppression of toxicity is reported as 0.715.
`CN(C)/N=N/c1nc[nH]c1C(N)=O` showed a suppression of toxicity of 2.86.
`Nc1nc2ncc(CNc3ccc(C(=O)N[C@@H](CCC(=O)O)C(=O)O)cc3)nc2c(=O)[nH]1` showed a suppression of toxicity of 5.71.
In the case of `CCN1CCCC1CNC(=O)c1cc(S(N)(=O)=O)ccc1OC` (stereo not drawn), the suppression of toxicity is reported as 10.
Work on `O=C1OC(c2ccc(O)cc2)(c2ccc(O)cc2)c2ccccc21` yielded a suppression of toxicity of 0.715.
`Cc1cc(C(C)(C)CC(C)(C)C)ccc1OCCOCC[N+](C)(C)Cc1ccccc1` gave a suppression of toxicity of 0.
For `CN1CCN(CC(=O)N2c3ccccc3C(=O)Nc3cccnc32)CC1`, the suppression of toxicity was 12.1.
`CNCCC=C1c2ccccc2CCc2ccccc21` gave a suppression of toxicity of 2.15.
Compound `Cn1cnc([N+](=O)[O-])c1Sc1ncnc2nc[nH]c12` has a suppression of toxicity of 7.86.
Work on `CC(=O)O[C@]1(C(C)=O)CCC2C3C=C(Cl)C4=CC(=O)[C@@H]5C[C@@H]5[C@]4(C)C3CC[C@@]21C` (stereo partly drawn) yielded a suppression of toxicity of 3.58.
`NC(N)=Nc1nc(CSCC/C(N)=N\S(N)(=O)=O)cs1` showed a suppression of toxicity of 3.57.
In the case of `CCCCC(CC)CN=C(N)NC(N)=NCCCCCCN=C(N)NC(N)=NCC(CC)CCCC` (stereo not drawn), the suppression of toxicity is reported as 5.71.
Compound `CN1C(=O)CC[C@H]1c1cccnc1` has a suppression of toxicity of 0.
`O=C(O)c1cccnc1Nc1cccc(C(F)(F)F)c1` showed a suppression of toxicity of 1.43.
Compound `Cc1ncc([N+](=O)[O-])n1CCO` has a suppression of toxicity of 7.14.
Compound `CC(C)OC(=O)C(C)(C)Oc1ccc(C(=O)c2ccc(Cl)cc2)cc1` has a suppression of toxicity of 0.
For `C1N2CN3CN1CN(C2)C3`, the suppression of toxicity was 5.71.
`NC(N)=NS(=O)(=O)c1ccc(N)cc1` gave a suppression of toxicity of 2.15.
`CC(=O)N[C@@H](CC(C)C)C(=O)O` showed a suppression of toxicity of 12.9.
For `Cc1cc(N)c2ccccc2[n+]1CCCCCCCCCC[n+]1c(C)cc(N)c2ccccc21`, the suppression of toxicity was 2.15.
Work on `CCCNC(C)C(=O)Nc1ccccc1C` (stereo not drawn) yielded a suppression of toxicity of 2.15.
`CC1=C(CC(=O)O)c2cc(F)ccc2/C1=C\c1ccc(S(C)=O)cc1` (stereo not drawn) showed a suppression of toxicity of 2.15.
With `CC(C(=O)O)c1cccc(Oc2ccccc2)c1` (stereo not drawn) the suppression of toxicity was 2.15.
`O=C(Nc1ccc([N+](=O)[O-])cc1Cl)c1cc(Cl)ccc1O` gave a suppression of toxicity of 3.57.
